Test results taken from PubChem BioAssay AID504834 (National Center for Advancing Translational Sciences (NCATS), 2011).
Values joined by “and” are separate entries in the source; they are usually repeats but may differ in a detail not shown here. Identical values can stand only once. In all, about 320,000 compounds went through this assay and about 22,000 (6.9%) were called active. This list was built around the results that the source calls inconclusive (neither active nor inactive); the mix of calls is not that of the screen. Calls come from the whole dose curve; as a rule, active = well fitted inhibition curve with a large enough effect; inconclusive = small, poorly fitted or top-dose-only effect, or another doubt; inactive = no such curve, though single readings can be large or run the other way. Potencies of inconclusive entries are doubtful fits and often do not repeat.

assay: Primary qHTS for delayed death inhibitors of the malarial parasite plastid, 96 hour incubation; settings: P. falciparum luciferase reporter growth; series mostly up to 28.7 µM; activity change, negative = inhibition: at the top concentration
How it was run: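 Compounds incubated with erythrocytes infected by luciferase-expressing P. falciparum (2% hematocrit, 0.05% parasitemia final) for 96 hours, 37 C in 5% CO2. Growth inhibition scored as decreased luciferase luminescence.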
% is set by controls: 0 for no effect and ±100 for the full control effect; potency is the fitted concentration of half-maximal effect.

SMILES	Potency	activity change, negative = inhibition
Cc1cc(-c2ccc(S(=O)(=O)N3CCN(c4cccc(C)c4C)CC3)s2)on1	inconclusive: 14.7 µM [inhibitor, single point]	–
c1ccc(-c2cncn2-c2ccccc2)cc1	–	inactive: 34.7%
COC(=O)NCC(C)OC(=O)Nc1ccc(Cl)cc1 (stereo not given)	inconclusive: 18.5 µM [inhibitor, partial curve, poor fit]	–
Cc1ccc(C(=O)NCC2CCCO2)cc1[N+](=O)[O-] (stereo not given)	–	inactive: 27.2%
O=C(Cn1cnc2scc(-c3ccc(Cl)cc3)c2c1=O)N1CCOCC1	–	inactive: 18.3%
O=C(c1cc2ccccc2cc1O)N1CCN(c2ccccc2O)CC1	inconclusive: 13.1 µM [inhibitor, single point]	–
Nc1nc(SCC(=O)NCCN2CCOCC2)nc2sc3c(c12)CCC3	active: 13.1 µM	–
O=C(c1ccc(Cn2c(=S)[nH]c3cc4c(cc3c2=O)OCO4)cc1)N1CCN(c2ccccc2)CC1	inconclusive: 2.62 µM [inhibitor, partial curve, poor fit]	–
CCCc1cc(=O)oc2cc(C)cc(OCC(=O)NCCCN3CCCC3=O)c12	inconclusive: 2.08 µM [inhibitor, full curve]	–
O=C(CSc1ccc(-c2ccc(F)cc2)nn1)NCc1ccco1	inconclusive: 13.1 µM [inhibitor, single point]	–
CN(C)CCNC(=O)Nc1ccc(F)cc1F	inconclusive: 18.5 µM [inhibitor, single point]	–
O=C(/C=C/c1c(F)cccc1Cl)Nc1cccnc1	inconclusive: 18.5 µM [inhibitor, single point]	–
O=C(CN1CCN(Cc2ccc(F)cc2Cl)C1=O)NCCc1ccccc1	inconclusive: 18.5 µM [inhibitor, single point]	–
COc1ccc(N(CC(=O)NN=C2CCN(C)CC2)S(=O)(=O)c2ccccc2)c(OC)c1	–	inactive: 9.5%
Cc1ccc(-c2nc(C3CCN(S(=O)(=O)c4ccc(C(F)(F)F)cc4)CC3)no2)cc1	–	inactive: -4.94%
Cc1ccc(N(CC(=O)NC2CCCCC2)C(=O)CCCC(=O)Nc2ccccn2)cc1	–	inactive: -1.79%
O=C(Nc1ccc(OC(=O)c2ccccc2)c(-c2nc3ccccc3s2)c1)c1ccccc1	–	inactive: 23.7%
Cc1ccc(S(=O)(=O)NCCC(=O)Nc2cccc(S(N)(=O)=O)c2)cc1C	inconclusive: 0.131 µM [inhibitor, full curve, poor fit]	–
Cc1ccc(Cn2c(N3CCN(CCO)CC3)nc3c2c(=O)n(C)c(=O)n3C)cc1	inconclusive: 18.5 µM [inhibitor, single point]	–
CC1CC(C)CN(CCC(=O)Nc2cccc(Cl)c2)C1 (stereo not given)	inconclusive: 0.0738 µM [inhibitor, full curve, poor fit]	–
Cc1cc(Br)c2c(c1)C(O)(N1CCCCC1C)C(=O)N2 (stereo not given)	inconclusive: 11.7 µM [inhibitor, single point]	–
CC(C)(C)c1ccc(OCCCN2CCCC2)cc1	–	inactive: -24.1%
CCN(CC)c1ccc([C@H]2[C@@H]3CCCC[C@]3(O)CCN2CC(=O)NCc2ccco2)cc1	inconclusive: 10.4 µM [inhibitor, partial curve]	–
Fc1cccc(C2NN=C(c3ccccc3)S2)c1 (stereo not given)	–	inactive: 246%

SMILES	Potency	activity change, negative = inhibition
Cc1cc(C)nc(NC(=O)c2c(-c3c(Cl)cccc3Cl)noc2C)n1	–	inactive: -4.39%
CCn1c2ccccc2c2cc(/C=N/n3cnnc3)ccc21	–	inactive: -16.2%
COc1cccc(NC(=O)C2CCC(CNS(=O)(=O)c3cccs3)CC2)c1 (stereo not given)	inconclusive: 0.465 µM [inhibitor, full curve, poor fit]	–
O=C(Cc1cc(=O)[nH][nH]1)N/N=C/c1cccc(Cl)c1Cl	inactive and inconclusive: 9.28 µM [inhibitor, partial curve]	–
COc1ccccc1-c1cc(C(=O)Nc2ccc(F)cc2F)no1	inconclusive: 10.4 µM [inhibitor, partial curve, poor fit]	–
Cc1ccc(NC(=S)N(CCN(C)C)Cc2cccs2)cc1	inconclusive: 11.7 µM [inhibitor, single point]	–
Cc1cc(C(C#N)c2ccccc2F)n2ncnc2n1 (stereo not given)	–	inactive: 19.9%
O=C(OCCOc1cccc(Cl)c1)c1cc(S(=O)(=O)N2CCCCC2)ccc1N1CCOCC1	active: 13.1 µM	–
O=C(NCc1ccccc1Cl)C1CCN(c2cnccn2)CC1	inconclusive: 18.5 µM [inhibitor, single point]	–
C=CC[n+]1c(-c2ccccc2)csc1NC(C)(C)C	active: 14.7 µM	–
Cc1cc(C)cc(NCc2ccncc2)c1	inconclusive: 10.4 µM [inhibitor, single point]	–
COc1ccc(C(C(=O)NCCC(C)C)N(CCO)C(=O)c2snc(C(N)=O)c2N)cc1 (stereo not given)	inconclusive: 10.4 µM [inhibitor, partial curve, poor fit]	–
FC(F)(F)c1cccc(Cc2noc(CN3CCCC(OCc4ccccn4)C3)n2)c1 (stereo not given)	active: 14.7 µM	–
CCC(=O)NCCc1nc2ccccc2n1Cc1ccc(C)cc1	inconclusive: 13.1 µM [inhibitor, single point]	–
CCC(C)NC(=O)Cn1cc(S(=O)(=O)N2CCCC2)c(S(=O)(=O)N2CCCC2)c1 (stereo not given)	inconclusive: 14.7 µM [inhibitor, partial curve]	–
COc1cccc(NC(=O)C(c2ccccc2)N2CCCC2)c1 (stereo not given)	inconclusive: 1.17 µM [inhibitor, partial curve, poor fit]	–
Cc1csc(NC(=O)CSc2ncnc3ccccc23)n1	–	inactive: 28.5%
COC(=O)c1sccc1NC(=O)Nc1ccccc1F	active: 9.28 µM	–
O=C1/C(=C/c2cccnc2)N=C2CCCCCN12	–	inactive: 10.2%
COC(=O)[C@@]1(Cc2ccc(F)cc2)[C@H]2c3cc(C(=O)N(C)C)n(Cc4ccccc4)c3C[C@H]2CN1C(=O)c1ccccc1	active: 3.29 µM	–
O=C(NCCOC(=O)c1ccccc1C(=O)OCCNC(=O)c1cccnc1)c1cccnc1	–	inactive: 13.7%
Cc1ccc(NC(=O)CN2C(=O)COc3ccc(S(=O)(=O)N4CCCC4)cc32)cc1C	inconclusive: 0.165 µM [inhibitor, full curve, poor fit]	–
Cc1ccc(C)c(OCCC(=O)OCc2csc(CC(=O)Nc3ccccc3C)n2)c1	inconclusive: 18.5 µM [inhibitor, partial curve, poor fit]	–
CC(C)N(Cc1nc(-c2ccc3c(c2)OCO3)no1)Cc1nccn1C	–	inactive: 13.1%

SMILES	Potency	activity change, negative = inhibition
O=S(=O)(NC1CCCCC1)c1cccc(-c2nnc(-c3ccccc3)o2)c1	inconclusive: 11.7 µM [inhibitor, single point]	–
CCN(CC)S(=O)(=O)c1cccc(-c2nnc(SCC(N)=O)n2CCc2ccccc2)c1	inconclusive: 8.28 µM [inhibitor, partial curve, poor fit]	–
NC(=O)c1cccc(CC(=O)c2ccccc2)c1	–	inactive: 14.9%
COc1ccc(CSCCc2n[nH]c(=S)n2-c2ccccc2)cc1	inconclusive: 18.5 µM [inhibitor, single point]	–
Cc1ccc(-n2nnnc2SCC(=O)N2CCN(C(=O)c3ccco3)CC2)c(C)c1	active: 6.57 µM	–
CCCNC(=O)C(=O)Nc1ccc(N(C)C)cc1	inconclusive: 2.33 µM [inhibitor, partial curve, poor fit]	–
C#CCOCCOCCOCCNc1nc(N2CCN(C(=O)Cn3cc(CCCN=C(N)N)nn3)CC2)nc(N2CCN(C(=O)[C@H](C)n3cc(CCCN=C(N)N)nn3)CC2)n1	inconclusive: 0.0066 µM [inhibitor, full curve, poor fit]	–
Cc1cccc(N2CC(C(=O)Nc3nnc(SCC(=O)Nc4cc(C)on4)s3)CC2=O)c1 (stereo not given)	–	inactive: -5.08%
O=C(CSc1nccc2ccccc12)N1CCN(c2ccccn2)CC1	–	inactive: -11.1%
Cn1nnnc1SCCNC(=O)C1CCC(=O)N(Cc2ccccc2F)C1 (stereo not given)	inconclusive: 18.5 µM [inhibitor, single point]	–
O=C(NCCOc1ccccc1)c1ccccc1[N+](=O)[O-]	inconclusive: 18.5 µM [inhibitor, single point]	–
Cc1cc2c(NC3CCCCC3)ncnc2s1	–	inactive: -18.6%
COc1ccc(C)cc1NC(=O)c1ccc(NS(=O)(=O)c2cccc3cccnc23)cc1	inconclusive: 14.7 µM [inhibitor, single point]	–
COc1nc(C)ccc1-c1noc(-c2ccccn2)n1	–	inactive: -3.98%
Cc1cc(OC(C)C(=O)NCC(O)c2ccccc2)c2c(C)cc(=O)oc2c1 (stereo not given)	inconclusive: 2.62 µM [inhibitor, full curve, poor fit]	–
COc1ccc(C(=O)Nc2cnn(Cc3ccc(Cl)cc3)c2)cc1OC	inconclusive: 2.08 µM [inhibitor, partial curve]	–
Cc1ccc(CN2CCN(Cc3cc(=O)c4ccccc4[nH]3)CC2CCO)o1 (stereo not given)	inconclusive: 9.28 µM [inhibitor, partial curve]	–
CCOC(=O)C(=CNc1ccccc1Cl)C(=O)OCC	inconclusive: 4.65 µM [inhibitor, partial curve, poor fit]	–
COc1ccccc1NC(=O)C(C(C)C)N1C(=O)c2ccccc2C1=O (stereo not given)	inconclusive: 16.5 µM [inhibitor, single point]	–
CCCn1c(=O)c(C(=O)OCC)c(O)c2cc(Br)ccc21	inconclusive: 1.04 µM [inhibitor, full curve]	–
Cc1ccc2cc(C3CC(c4ccco4)=NN3C(=O)CCC(=O)O)c(Cl)nc2c1 (stereo not given)	inconclusive: 1.85 µM [inhibitor, full curve]	–
Cc1coc2c1c(C)cc1oc(=O)c(CC(=O)NCC(=O)NCC(=O)O)c(C)c12	inconclusive: 0.522 µM [inhibitor, full curve, poor fit]	–
